Test results taken from publication PMC2614481.
Results are given in words; binding and its absence hold for the method and conditions named. Binding seen in cells or lysates may run through a third protein. Here binding means that the protein was enriched with, or labelled near, the bait; the list need not be complete.

T1: Sp_Set3p (S. pombe) (UniProt Q10362)
T1 sequence: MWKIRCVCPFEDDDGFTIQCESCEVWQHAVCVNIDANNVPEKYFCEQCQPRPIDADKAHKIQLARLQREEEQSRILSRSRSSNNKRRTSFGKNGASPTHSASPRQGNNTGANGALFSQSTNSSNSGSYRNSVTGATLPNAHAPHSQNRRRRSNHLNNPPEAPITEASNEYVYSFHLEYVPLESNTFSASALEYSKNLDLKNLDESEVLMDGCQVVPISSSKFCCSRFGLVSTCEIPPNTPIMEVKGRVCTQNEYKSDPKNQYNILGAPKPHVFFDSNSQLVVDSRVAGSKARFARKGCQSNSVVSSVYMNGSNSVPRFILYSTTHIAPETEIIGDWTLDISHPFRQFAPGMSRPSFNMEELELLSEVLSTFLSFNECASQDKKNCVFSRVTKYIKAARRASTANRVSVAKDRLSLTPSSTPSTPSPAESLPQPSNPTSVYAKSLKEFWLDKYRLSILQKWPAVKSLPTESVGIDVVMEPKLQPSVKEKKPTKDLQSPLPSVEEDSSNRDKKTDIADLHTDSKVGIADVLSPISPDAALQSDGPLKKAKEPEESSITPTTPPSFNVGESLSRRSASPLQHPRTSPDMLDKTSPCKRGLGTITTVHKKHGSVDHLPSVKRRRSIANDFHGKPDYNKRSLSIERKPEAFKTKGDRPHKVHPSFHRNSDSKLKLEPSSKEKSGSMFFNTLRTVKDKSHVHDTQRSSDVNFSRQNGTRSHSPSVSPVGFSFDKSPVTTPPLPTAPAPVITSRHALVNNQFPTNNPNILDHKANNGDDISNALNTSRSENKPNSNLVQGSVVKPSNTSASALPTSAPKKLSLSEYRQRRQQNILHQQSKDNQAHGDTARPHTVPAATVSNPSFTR

T2: Sc_Snt2p (S. cerevisiae) (UniProt P53127)
T2 sequence: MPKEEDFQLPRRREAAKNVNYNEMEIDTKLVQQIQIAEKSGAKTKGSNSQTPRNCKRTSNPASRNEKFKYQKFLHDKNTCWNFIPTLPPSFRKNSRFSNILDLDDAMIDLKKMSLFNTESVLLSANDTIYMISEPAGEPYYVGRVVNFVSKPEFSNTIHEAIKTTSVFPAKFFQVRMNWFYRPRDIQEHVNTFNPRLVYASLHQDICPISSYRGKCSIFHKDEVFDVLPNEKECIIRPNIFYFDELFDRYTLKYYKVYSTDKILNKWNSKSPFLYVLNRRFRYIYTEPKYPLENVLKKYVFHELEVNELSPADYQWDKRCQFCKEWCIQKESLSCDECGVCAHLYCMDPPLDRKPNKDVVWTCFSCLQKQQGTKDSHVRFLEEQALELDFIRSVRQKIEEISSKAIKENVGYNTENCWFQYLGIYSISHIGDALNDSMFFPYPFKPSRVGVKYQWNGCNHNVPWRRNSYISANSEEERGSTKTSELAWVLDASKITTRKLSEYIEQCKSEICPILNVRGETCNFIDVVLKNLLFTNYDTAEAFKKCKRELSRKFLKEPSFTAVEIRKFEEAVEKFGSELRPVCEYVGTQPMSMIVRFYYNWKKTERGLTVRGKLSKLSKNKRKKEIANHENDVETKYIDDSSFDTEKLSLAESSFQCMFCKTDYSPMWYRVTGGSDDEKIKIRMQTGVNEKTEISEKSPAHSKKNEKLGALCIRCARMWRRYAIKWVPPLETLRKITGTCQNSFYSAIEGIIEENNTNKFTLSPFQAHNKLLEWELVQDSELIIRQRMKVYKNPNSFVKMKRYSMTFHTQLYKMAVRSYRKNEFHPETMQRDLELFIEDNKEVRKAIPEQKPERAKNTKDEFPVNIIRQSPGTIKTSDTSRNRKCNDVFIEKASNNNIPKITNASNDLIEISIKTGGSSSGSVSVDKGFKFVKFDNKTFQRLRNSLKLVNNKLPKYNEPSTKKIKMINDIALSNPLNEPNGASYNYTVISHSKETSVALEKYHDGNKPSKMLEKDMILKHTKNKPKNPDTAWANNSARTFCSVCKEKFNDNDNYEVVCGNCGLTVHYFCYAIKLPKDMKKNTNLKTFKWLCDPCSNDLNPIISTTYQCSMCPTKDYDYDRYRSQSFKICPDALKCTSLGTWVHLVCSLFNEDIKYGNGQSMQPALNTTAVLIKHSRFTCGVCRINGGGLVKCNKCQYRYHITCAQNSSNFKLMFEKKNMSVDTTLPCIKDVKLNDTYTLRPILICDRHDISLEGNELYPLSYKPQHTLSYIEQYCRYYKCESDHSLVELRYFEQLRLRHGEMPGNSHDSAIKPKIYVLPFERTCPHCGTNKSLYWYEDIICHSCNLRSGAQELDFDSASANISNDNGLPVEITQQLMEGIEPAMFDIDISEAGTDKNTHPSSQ

T3: Sc_Tos4p (S. cerevisiae) (UniProt Q06266)
T3 sequence: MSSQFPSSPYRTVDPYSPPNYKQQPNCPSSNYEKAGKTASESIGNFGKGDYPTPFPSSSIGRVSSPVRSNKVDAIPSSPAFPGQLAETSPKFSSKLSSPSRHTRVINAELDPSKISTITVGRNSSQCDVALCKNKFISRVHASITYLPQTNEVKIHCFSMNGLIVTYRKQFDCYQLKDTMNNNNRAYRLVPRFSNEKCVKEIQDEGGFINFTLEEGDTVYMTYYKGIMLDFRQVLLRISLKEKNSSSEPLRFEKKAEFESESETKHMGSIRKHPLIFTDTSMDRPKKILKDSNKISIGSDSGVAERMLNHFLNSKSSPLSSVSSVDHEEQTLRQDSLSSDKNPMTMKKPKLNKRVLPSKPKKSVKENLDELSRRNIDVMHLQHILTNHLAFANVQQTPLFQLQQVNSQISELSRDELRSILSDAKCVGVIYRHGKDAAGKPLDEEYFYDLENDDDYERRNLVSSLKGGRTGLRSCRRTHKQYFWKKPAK

B1: Sp_Hda1 (protein, UniProt O13298 1-434)
chain: MDTPETSTPYEQVEKGSFFSFRPQKKRVTYHLDEQVGNYHYGDKHPMKPHRITITNHLVMGYGLHNKMSVFSPRMATFGEMSEFHREDYLDFLKRVTPDNAEQFADKFQQFNIGDDCPVFDGTYEFSQRSAGASLDASRKLVQGQTDIAINWSGGLHHAKRGEASGFCYVNDIVLAILNMLRFFPRVLYIDIDIHHGDGVQQAFYESDRVLTVSFHKYNGDFFPATGNFDENGVKGGKYFALNVPLEDGIGDEQYTSLFKSIIEPTINTFQPSAIVLQCGADSLGYDRLGVFNLSIHAHGECVRFTRSFNIPMLVVGGGGYTLRNVARAWCYETSICVNEQIPSELPRETLYYEFFAPDYTLHPRLTTKIENKNTPKALEDLRIRALEQLRYLGGAPSVQMQQIPPDLTGHLEEEDERLNDEYLDKAVDVRVRG
B2: Sp_Hif2p (protein, UniProt O74845 1-564)
chain: MDTNQVNYIIWRYLKECGYSHTKFAFERETGIQNLDKQWGSTCQVGALVEILQKGLQYVELEKHYVDNHSSNEEASKTSIDGESLVNENPCKLPFYLTVPHICETTLTKADSTNGFCEHNNSNDHQLKILQDKGSGSPSSPVMPFKDKIEKRDIDITMADESNVEKDPARPIAVYNSSPVTEITEIKQVTFTGGEDIKSDFFKVIPTKHPVTCADWRPLLQENYHVYEFSIGMTNATLASVSICEEQNDFKAKTDYCLQSSFDNQDITGVAWNNSGSFLAYAFFSGVIEIYDSHGSQILSFHNNKGPVLSLKWSGTDTYLAAGSADGTITLFDQLKQTQYSIDTLASSVLDIEWISFDEFVTSDVEGSLRVYKVDGKAPVSTVSHAHDNSIVALRYNLRISLLLTASSDTTVKLWSRGDAGAFECLHVFSFSSPVNCIDWNLREGTPILAVASNSIVSMYNAISLQQLAVFMRHTAPVSALSFSHNGRYLATGDTSGGVCIWSCKTAKLFKELGSDNSELIAVTNVLPEEQVNFLRWSFDDKDLLIGKQKKEIICCCDFLHDSL
B3: Sc_Rpd3p (protein, UniProt P32561 1-433)
chain: MVYEATPFDPITVKPSDKRRVAYFYDADVGNYAYGAGHPMKPHRIRMAHSLIMNYGLYKKMEIYRAKPATKQEMCQFHTDEYIDFLSRVTPDNLEMFKRESVKFNVGDDCPVFDGLYEYCSISGGGSMEGAARLNRGKCDVAVNYAGGLHHAKKSEASGFCYLNDIVLGIIELLRYHPRVLYIDIDVHHGDGVEEAFYTTDRVMTCSFHKYGEFFPGTGELRDIGVGAGKNYAVNVPLRDGIDDATYRSVFEPVIKKIMEWYQPSAVVLQCGGDSLSGDRLGCFNLSMEGHANCVNYVKSFGIPMMVVGGGGYTMRNVARTWCFETGLLNNVVLDKDLPYNEYYEYYGPDYKLSVRPSNMFNVNTPEYLDKVMTNIFANLENTKYAPSVQLNHTPRDAEDLGDVEEDSAEAKDTKGGSQYARDLHVEHDNEFY
B4: Sc_Hos4p (protein, UniProt P40480 1-1083)
chain: MNETTTKQPLKKRSLSSYLSNVSTRREELEKISKQETSEEEDTAGKHEQRETLSEEVSDKFPENVASFRSQTTSVHQATQNNLNAKESEDLAHKNDASSHEGEVNGDSRPDDVPETNEKISQAIRAKISSSSSSPNVRNVDIQNHQPFSRDQLRAMLKEPKRKTVDDFIEEEGLGAVEEEDLSDEVLEKNTTEPENVEKDIEYSDSDKDTDDVGSDDPTAPNSPIKLGRRKLVRGDQLDATTSSMFNNESDSELSDIDDSKNIALSSSLFRGGSSPVKETNNNLSNMNSSPAQNPKRGSVSRSNDSNKSSHIAVSKRPKQKKGIYRDSGGRTRLQIACDKGKYDVVKKMIEEGGYDINDQDNAGNTALHEAALQGHIEIVELLIENGADVNIKSIEMFGDTPLIDASANGHLDVVKYLLKNGADPTIRNAKGLTAFESVDDESEFDDEEDQKILREIKKRLSIAAKKWTNRAGIHNDKSKNGNNAHTIDQPPFDNTTKAKNEKAADSPSMASNIDEKAPEEEFYWTDVTSRAGKEKLFKASKEGHLPYVGTYVENGGKIDLRSFFESVKCGHEDITSIFLAFGFPVNQTSRDNKTSALMVAVGRGHLGTVKLLLEAGADPTKRDKKGRTALYYAKNSIMGITNSEEIQLIENAINNYLKKHSEDNNDDDDDDDNNNETYKHEKKREKTQSPILASRRSATPRIEDEEDDTRMLNLADDDFNNDRDVKESTTSDSRKRLDDNENVGTQYSLDWKKRKTNALQDEEKLKSISPLSMEPHSPKKAKSVEISKIHEETAAEREARLKEEEEYRKKRLEKKRKKEQELLQKLAEDEKKRIEEQEKQKVLEMERLEKATLEKARKMEREKEMEEISYRRAVRDLYPLGLKIINFNDKLDYKRFLPLYYFVDEKNDKFVLDLQVMILLKDIDLLSKDNQPTSEKIPVDPSHLTPLWNMLKFIFLYGGSYDDKKNNMENKRYVVNFDGVDLDTKIGYELLEYKKFVSLPMAWIKWDNVVIENHAKRKEIEGNMIQISINEFARWRNDKLNKAQQPTRKQRSLKIPRELPVKFQHRMSISSVLQQTSKEPFW

Legend:
Sp_Set3p (S. pombe) = target: T1, Sp_Set3p (S. pombe); experiment: affinity purification with mass spectrometry; TAP of baits TAP-tagged at their genes from S. pombe extracts; eluates on 6-18% gels, Coomassie, bands and slices identified by MALDI peptide mapping and LC-MS/MS; common background removed, A-index cut-off 1.75
Sc_Snt2p (S. cerevisiae) = target: T2, Sc_Snt2p (S. cerevisiae); experiment: affinity purification with mass spectrometry; TAP of baits TAP-tagged at their genes from S. cerevisiae extracts; eluates on 6-18% gels, Coomassie, bands and slices identified by MALDI peptide mapping and LC-MS/MS; common background removed, A-index cut-off 1.75
Sc_Tos4p (S. cerevisiae) = target: T3, Sc_Tos4p (S. cerevisiae); experiment: as above

Binder | binding (Sp_Set3p (S. pombe)) | also measured
B1 | binds | –
B2 | binds | –
B3 | – | binding (Sc_Snt2p (S. cerevisiae)): binds
B4 | – | binding (Sc_Tos4p (S. cerevisiae)): binds
